By UniProt entry, the sequences of proteins in these tests, tags left out. Where a name states a change or a piece, a line headed by the entry shows the natural chain unless it says otherwise.
UniProt P04608: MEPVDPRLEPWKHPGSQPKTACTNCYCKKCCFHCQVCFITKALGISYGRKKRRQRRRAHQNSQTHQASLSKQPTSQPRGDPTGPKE

In patent US20250295795A1, “PEPTIDE” (priority 2021, published 2025):

What was measured:
rab5a-RFP = assay: Co-localization of trimer with early endosomal marker rab5a-RFP in transfected Hela cells; assay type: cell-based, human; settings: for co-localization analysis M1 / co-localization analysis M2 / co-localization analysis R: 1 μM, 15 min, pre-wash
HeLa cells = assay: Time course of uptake in Hela cells (continuous live cell confocal microscopy, ROI profile analysis); assay type: cell-based, human; settings: 1 μM; first 15 min
Experimental: To better understand the mechanism by which tri-Tat A and tri-cTat B enter the cytosol and the nucleus, we investigated the uptake kinetics of the conjugates during the first 15 min after their addition to Hela cells using confocal live cell microscopy. Tri-Tat A (FIG. 3a) or tri-cTat B (FIG. 3b) (1 μM) were added to the cells and images acquired from 1 min to 15 min at 60 sec intervals. The two trimers show distinct uptake patters into Hela cells; to better understand the difference in uptake kinetics, we drew cross sectional profile plots through representative cells treated with tri-Tat A (FIG. 3c) and tri-cTat B (FIG. 3d). […] To investigate whether findings in individual cells also apply to larger populations, we extended the plot profile analysis by designating regions of interest (ROI) corresponding to plasma membrane, cytosol (excluding endosomes), nucleus, and nucleoli along the cross section, using information from brightfield images.^30 Average fluorescence intensities for each ROI, at each time point, in six cells per treatment group were calculated and plotted in FIGS. 3e-3h.
HeLa and CHO cells were cultured in DMEM supplemented with 10% FBS and penicillin/streptomycin. […] Images were analysed using ImageJ software. […]

Row | Molecule | co-localization analysis M1 (rab5a-RFP) | co-localization analysis M2 (rab5a-RFP) | co-localization analysis R (rab5a-RFP) | route / mechanism of cell entry (HeLa cells) | nature of intracellular punctate/vesicular fluorescence by rab5a-RFP co-localization (rab5a-RFP)
1 | N=C(N)NCCC[C@H](NC(=O)[C@H](CCCNC(=N)N)NC(=O)[C@H](CCCNC(=N)N)NC(=O)[C@H](CCC(N)=O)NC(=O)[C@H](CCCNC(=N)N)NC(=O)[C@H](CCCNC(=N)N)NC(=O)[C@H](CCCCN)NC(=O)[C@H](CCCCN)NC(=O)[C@H](CCCNC(=N)N)NC(=O)CCCc1cn(CC(Cn2cc(CCCC(=O)N[C@@H](CCCNC(=N)N)C(=O)N[C@@H](CCCCN)C(=O)N[C@@H](CCCCN)C(=O)N[C@@H](CCCNC(=N)N)C(=O)N[C@@H](CCCNC(=N)N)C(=O)N[C@@H](CCC(N)=O)C(=O)N[C@@H](CCCNC(=N)N)C(=O)N[C@@H](CCCNC(=N)N)C(=O)N[C@@H](CCCNC(=N)N)C(N)=O)nn2)(Cn2cc(CCCC(=O)N[C@@H](CCCNC(=N)N)C(=O)N[C@@H](CCCCN)C(=O)N[C@@H](CCCCN)C(=O)N[C@@H](CCCNC(=N)N)C(=O)N[C@@H](CCCNC(=N)N)C(=O)N[C@@H](CCC(N)=O)C(=O)N[C@@H](CCCNC(=N)N)C(=O)N[C@@H](CCCNC(=N)N)C(=O)N[C@@H](CCCNC(=N)N)C(N)=O)nn2)Cn2cc(CNC(=O)c3ccc4c(c3)C(=O)OC43c4ccc(N)c(S(=O)(=O)O)c4Oc4c3ccc(N)c4S(=O)(=O)O)nn2)nn1)C(N)=O (stereo partly shown) [tri-Tat A] | 0.1878 | 0.4714 | 0.264 | translocates directly across the membrane | –
2 | N=C(N)NCCC[C@@H]1NC(=O)[C@H](CCCNC(=N)N)NC(=O)[C@H](CCCNC(=N)N)NC(=O)[C@H](CCC(N)=O)NC(=O)[C@H](CCCNC(=N)N)NC(=O)[C@H](CCCNC(=N)N)NC(=O)[C@H](CCCCN)NC(=O)[C@H](CCCCN)NC(=O)[C@H](CCCNC(=N)N)NC(=O)[C@H](CCCCn2cc(COCC(COCc3cn(CCCCCCNC(=O)c4ccc5c(c4)C(=O)OC54c5ccc(N)c(S(=O)(=O)O)c5Oc5c4ccc(N)c5S(=O)(=O)O)nn3)(COCc3cn(CCCC[C@@H]4NC(=O)CC[C@@H](C(N)=O)NC(=O)[C@H](CCCNC(=N)N)NC(=O)[C@H](CCCNC(=N)N)NC(=O)[C@H](CCCNC(=N)N)NC(=O)[C@H](CCC(N)=O)NC(=O)[C@H](CCCNC(=N)N)NC(=O)[C@H](CCCNC(=N)N)NC(=O)[C@H](CCCCN)NC(=O)[C@H](CCCCN)NC(=O)[C@H](CCCNC(=N)N)NC4=O)nn3)COCc3cn(CCCC[C@@H]4NC(=O)CC[C@@H](C(N)=O)NC(=O)[C@H](CCCNC(=N)N)NC(=O)[C@H](CCCNC(=N)N)NC(=O)[C@H](CCCNC(=N)N)NC(=O)[C@H](CCC(N)=O)NC(=O)[C@H](CCCNC(=N)N)NC(=O)[C@H](CCCNC(=N)N)NC(=O)[C@H](CCCCN)NC(=O)[C@H](CCCCN)NC(=O)[C@H](CCCNC(=N)N)NC4=O)nn3)nn2)NC(=O)CC[C@@H](C(N)=O)NC1=O (stereo partly shown) [tri-cTat B] | 0.7127 | 0.6757 | 0.474 | formation of vesicle-like bodies followed by vesicular escape | vesicle-like structures are endosomes
3 | tri-Tat B: AF488-labelled trimer of linear Tat (49-57) peptide on alkyne functionalized scaffold B (RKKRRQRRR; trimer on alkyne scaffold B; AF488 label; UniProt P04608 49-57, looked up, fragment) | 0.5105 | 0.5191 | 0.242 | – | endosomal entrapment
